Test results published in US20040235717A1, “Suppression of androgen receptor transactivation through new pathways to ar and ar coactivators and repressors” (priority 2001, published 2004).
At least one structure is not confirmed: it was looked up by name or label, or the drawing left a doubt.

Test system: AR transactivation
Assay: AR transactivation, MMTV-CAT reporter in DU145 cells transfected with AR
Format: cell-based, human
Conditions: DU145; rapamycin 20 nM 30 min prior to 1 nM DHT; dAkt co-transfected
Text: 250. To dissect the divergent effects of IL-6 in prostate tumor growth, Qui, Y. et al., Nature 393, 83-85 (1998); Hobisch, A. et al., Cancer Res. 58, 4640-4645 (1998); Ritchie, C. K. et al., Endocrinology 138, 1145-1150 (1997), the potential influences of IL-6 on the transactivation of AR, the master regulator of the prostate tumor growth were studied. Chang, C. et al., Science 240, 324.326 (1988); Chang, C. et al., Crit. Rev. Eukaryotic Gene Expression 5, 97-125 (1995). Because IL-6 has two major signal cascades, mitogen-activated protein kinase (MAPK) and phosphatidylinositol 3-kinase (PI3K), Qui, Y. et al., Nature 393, 83-85 (1998); Qui, Y. et al., Proc. Natl. Acad. Sci. USA 95, 3644-3649 (1998), inhibitors were applied to specifically block one of these two IL-6 signal pathways. DU145 cells were transfected for 24 h with AR and MMTV-CAT reporter gene. After transfection, the cells were serum starved for 24 h. Next, 20 μM LY294002, P098059 or vehicle was added to serum-free medium 30 min prior to IL-6 treatment. […] The cells were then harvested and AR transactivation was measured by CAT activity. […] Vlahos, C. J. et al., J. Biol. Chem. 269, 5241-5148 (1994). […] Alessi, D. R. et al., J. Biol. Chem. 270, 27489-27494 (1995).
251. IL-6's effect on PI3K activity was tested. After serum starvation for 24 h, LNCaP, PC-3 or DU145 cells were treated with 50 μg/ml IL-6 for 30 minutes. The cells were then harvested. PI3K activity was measured by using phosphatidylinositol (PT) as a substrate. […] The transactivation was measured by CAT activity.
252. Focus then turned to the two major downstream effectors of PI3K: a serine/threonine kinase (Akt/PKB) and a ribosomal S6 kinase (p70S6k). Franke, T. F. et al., Cell 88,435-437 (1997). […] The transactivation activity was determined after 24 h transfection.
262. The DU145 and PC-3 cells were maintained in Dulbecco's Minimum Essential Medium (DMEM) containing penicillin (25 μg/m1), streptomycin (25 μg/ml), and 5% fetal calf serum (FCS). The LNCaP cells were maintained in RPMI-1640 with 10% FCS. […]

Structure (SMILES): CO[C@H]1C[C@@H]2CC[C@@H](C)[C@@](O)(O2)C(=O)C(=O)N2CCCC[C@H]2C(=O)O[C@H]([C@H](C)C[C@@H]2CC[C@@H](O)[C@H](OC)C2)CC(=O)[C@H](C)/C=C(\C)[C@@H](O)[C@@H](OC)C(=O)[C@H](C)C[C@H](C)/C=C/C=C/C=C/1C [rapamycin, reference compound]
- Effect on p110/p110*-repressed AR transactivation: not influenced
